Out of some 400,000 compounds screened, about 13,000 (3.2%) were called active. The inconclusive results got no clear call from the source; some entries with a clear call stand among them for comparison. Calls follow the shape of the dose curve; as a rule, active = well fitted cell-killing curve with a large enough effect; inconclusive = small, poorly fitted or top-dose-only effect, or effect the other way; inactive = flat fitted curve, though single readings scatter. Potencies beside an inconclusive call are fits to weak or partial responses and may not hold up.
Assay: qHTS assay for MDR1-selective chemotherapeutics: Primary screen using the drug-selected MDR subline cells KB-V1; also: nearly all actives have a fitted effect of over 60% in size
Settings: KB-V1 MDR cells viability, CellTiter-Glo, 72 h; activity change, negative = cytotoxicity: at 46.1 µM (top of the series)
In short: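 Cytotoxicity via CellTiter-Glo luminescence after 72 h compound exposure at 37 degrees C. Cells: drug-selected KB-V1 line, DMEM phenol-red free plus 10% FBS. Compounds tested at multiple concentrations; normalized data fitted to concentration-effect curves.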
% is scaled to controls: 0 for no effect and ±100 for the full control effect; potency is read from the fitted curve at half-maximal effect.

Row | Structure (SMILES) | Potency | activity change, negative = cytotoxicity
1 | Cc1ccc(C2NC(=S)NC3=C2C(=O)CC(C)(C)C3)cc1 (stereo not drawn) | inconclusive: 20.6 µM [cytotoxic, single point] | 
2 | O=C(COc1ccc(Cl)cc1)NCc1nnc(SCC(=O)N2CCCCC2)o1 | inconclusive: 23.1 µM [cytotoxic, partial curve, poor fit] | 
3 | Cn1nc(-c2ccccc2F)c2cc(C(=O)Nc3ccc4c(c3)OCCO4)sc21 | inconclusive: 16.4 µM [cytotoxic, single point] | 
4 | CCOC(=O)CN(C(=O)CNC(=O)c1cccs1)C(C(=O)NC1CCCCC1)c1cccs1 (stereo not drawn) | active: 20.6 µM | 
5 | Cc1nnc(NC2=NCCC2)s1 | inactive | 
6 | CC(C)(C)NC(=O)COC(=O)c1ccccc1Nc1ccc(SC(F)F)cc1 | inactive | 
7 | CCOc1ccc(S(=O)(=O)N2CCOCC2)cc1NC(=O)CCOc1ccc(C(C)(C)C)cc1 | inactive | 
8 | Fc1ccc(C2=Nn3c(nnc3-c3n[nH]c4c3CCC4)SC2)cc1 | inconclusive: 9.2 µM [cytotoxic, partial curve, poor fit] | 
9 | C/C(=N\Nc1ncc(Cl)cc1Cl)c1ccc(C#N)cc1 | inconclusive: 18.4 µM [cytotoxic, single point] | 
10 | Cn1ncc(C(=O)N=S(C)(=O)c2ccccc2)c1[N+](=O)[O-] (stereo not drawn) | inactive | 
11 | CCOc1ccc(-c2nc(N)ncc2Oc2cccc(OC)c2)c(O)c1 | inconclusive: 29.1 µM [cytotoxic, single point] | 
12 | O=C(COc1ccc(Cl)cc1)NNC(=O)c1ccc2c(=O)n3c(nc2c1)CCC3 | inconclusive: 29.1 µM [rising, single point] | 
13 | Cc1ccc(C)c(S(=O)(=O)N2CCN(C(=O)CSC(=S)N3CCCC3)CC2)c1 | inconclusive: 3.26 µM [cytotoxic, full curve, poor fit] | 
14 | CCCCCNc1ncnc2c(C)[nH]nc12 | inactive | 
15 | COc1ccccc1-n1nc(C)cc1N | inconclusive: 6.51 µM [rising, partial curve] | 
16 | Cc1nnc(SCCCn2c(N3CCCCC3)nc3c2c(=O)[nH]c(=O)n3C)s1 | inconclusive: 18.4 µM [cytotoxic, partial curve, poor fit] | 
17 | COc1cc2oc(=O)ccc2c(OC)c1CC(O)C(C)(C)O (stereo not drawn) | inconclusive: 23.1 µM [rising, single point] | 
18 | Cn1c(SCC(=O)NCc2ccccc2)nc2ccccc21 | active: 14.6 µM | 
19 | Cc1sc2ncnc(N/N=C/c3ccccc3O)c2c1C | inconclusive: 2.91 µM [cytotoxic, full curve] | 
20 | CC(C)Cn1c(N)c(C(=O)NCc2cccs2)c2nc3ccccc3nc21 | active: 10.3 µM | 
21 | Cc1ccc(NC(=O)C2CCN(C(=O)c3cccs3)CC2)c(C)c1 | inconclusive: 14.6 µM [cytotoxic, single point] | 
22 | COc1ccccc1N1CCN(S(=O)(=O)c2c(C)nc3sccn3c2=O)CC1 | inconclusive: 23.1 µM [rising, single point] | 
23 | COc1cc(C)c(/C=C/C(C)=C/C=C/C(C)=C/C(=O)O)c(C)c1C | inactive | 
24 | CCOC(=O)C[C@H]1c2ccc(C(F)(F)F)cc2S(=O)(=O)N1C(C)(C)C | inconclusive: 23.1 µM [cytotoxic, single point] | 
25 | O=C(CN1C(=O)S/C(=C\c2cc(Cl)c(O)c(Cl)c2)C1=O)Nc1ccccc1 |  | inconclusive: 5.93%

Entries from the list above with a tert-butyl group:
Row | Structure (SMILES) | Potency | activity change, negative = cytotoxicity
6 | CC(C)(C)NC(=O)COC(=O)c1ccccc1Nc1ccc(SC(F)F)cc1 | inactive | 
7 | CCOc1ccc(S(=O)(=O)N2CCOCC2)cc1NC(=O)CCOc1ccc(C(C)(C)C)cc1 | inactive | 
24 | CCOC(=O)C[C@H]1c2ccc(C(F)(F)F)cc2S(=O)(=O)N1C(C)(C)C | inconclusive: 23.1 µM [cytotoxic, single point] | 

(continued)

Row | Structure (SMILES) | Potency | activity change, negative = cytotoxicity
26 | COc1ccc(Cl)cc1NC(=O)CCCN1C(=O)CCC1=O | inconclusive: 29.1 µM [cytotoxic, single point] | 
27 | COc1ccc(OCC(=O)NCCNC(=O)c2ccccn2)cc1 | inconclusive: 29.1 µM [rising, single point] | 
28 | O=C(c1cccc(S(=O)(=O)N2CCCC2)c1)N1CCOCC1 | inactive | 
29 | COc1ccc(CSc2nc(N3CCOCC3)c3c(c2C#N)CC(C)(C)OC3)cc1 | inactive | 
30 | COc1cc(C(=O)Nc2ccc(NC(=O)c3cccc(Cl)c3)nc2)cc(OC)c1OC | inconclusive: 29.1 µM [cytotoxic, single point] | 
31 | CC(C(=O)NCc1ccco1)n1ccc2cc(S(=O)(=O)N3CCCCC3)ccc21 (stereo not drawn) | inactive | 
32 | CCOCCCn1c(=S)[nH]c2cc(C(=O)NCCCN(CC)CC)ccc2c1=O | inactive | 
33 | N#CC(Cc1ccccc1OC(F)F)c1nc2ccccc2[nH]1 (stereo not drawn) | inconclusive: 29.1 µM [cytotoxic, single point] | 
34 | CCOCCCNC(=O)c1oc2ccc(S(=O)(=O)N3CCOCC3)cc2c1C | inconclusive: 20.6 µM [cytotoxic, single point] | 
35 | CC(C)c1nn2c(=O)cc(COC(=O)c3ccco3)nc2s1 | inconclusive: 11.6 µM [rising, partial curve, poor fit] | 
36 | O=C(C1CC1)N1CCC(c2nc(-c3ccc(S(=O)(=O)NCC4CCCO4)cc3)no2)CC1 (stereo not drawn) | inconclusive: 35.5 µM [cytotoxic, single point] | 
37 | CCCCCCCCCCCCCCC[C@@H](O)[C@@H](N)CO | inconclusive: 29.1 µM [cytotoxic, single point] | 
38 | CCCCS(=O)(=O)NC(=O)C1(C)CCN1C(=O)C/C=C/c1ccccc1 (stereo not drawn) | inactive | 
39 | COCC(C)n1c(SCC(=O)Nc2cccnc2Cl)nc2ccccc2c1=O (stereo not drawn) | inconclusive: 16.4 µM [cytotoxic, partial curve] | 
40 | CC(=O)NCC(=O)OCC(=O)c1ccc(Cl)cc1 | inconclusive: 25.9 µM [rising, partial curve, poor fit] | 
41 | CC(C)Sc1ncc(Cl)c(C(=O)Nc2ccc(S(=O)(=O)N3CCCCC3)cc2)n1 | inactive | 
42 | CCOc1ccc(CCNC(=O)Cn2ccc3ccccc3c2=O)cc1OCC | inconclusive: 10.3 µM [cytotoxic, partial curve] | 
43 | O=C(CC1CC2CCC1C2)Nc1nc(-c2ccccn2)cs1 (stereo not drawn) | inconclusive: 2.91 µM [cytotoxic, full curve, poor fit] | 
44 | CCCCCCCCCCN(CCCCCCCCCC)c1ccccc1 | inactive | 
45 | CCOC(=O)c1cc(NC(=O)C2C3C=CC(O3)C2C(=O)O)cc(C(=O)OCC)c1 (stereo not drawn) | inactive | 
46 | COc1ccc(C)cc1NC(=O)C(Sc1nnc2ccccn12)c1ccccc1 (stereo not drawn) | active: 3.26 µM | 
47 | CC1Cc2cc(S(=O)(=O)N3CCCCC3C)ccc2N1C(=O)C1CCC1 (stereo not drawn) | inconclusive: 2.59 µM [cytotoxic, partial curve, poor fit] | 
48 | CC(C)CC(NC(=O)C1CCC(C)CC1)C(=O)NCc1cccnc1 (stereo not drawn) | active: 18.4 µM | 
49 | CCCOc1ccc(/C=N/Nc2cccc([N+](=O)[O-])c2)c(O)c1 | inactive | 
50 | O=C(NC1CCCCC1)c1ccc([N+](=O)[O-])o1 | inconclusive: 29.1 µM [cytotoxic, single point] | 

Row | Structure (SMILES) | Potency | activity change, negative = cytotoxicity
51 | O=Cc1cnc(N2CCCCC2)s1 | inactive | 
52 | COC(=O)CNc1c(-c2ccccn2)nc2ccc(Br)cn12 | active: 5.17 µM | 
53 | COc1ccc(-c2ccc(C(C)=O)cc2)cc1[C@H]1[C@H]2C=CC[C@@H](C)[C@@H]2C(=O)N1Cc1ccccc1 | inconclusive: 29.1 µM [cytotoxic, single point] | 
54 | Cc1ccc(C(=O)OC(C)C(=O)NC2CCCCC2C)s1 (stereo not drawn) | active: 20.6 µM | 
55 | O=C(Nc1ccccc1F)c1cc(C(=O)Nc2ccccc2F)cc([N+](=O)[O-])c1 | inactive | 
56 | O=C(NCc1cccs1)C(=O)NCC(c1ccco1)N1CCN(c2ccccc2F)CC1 (stereo not drawn) | inconclusive: 2.06 µM [cytotoxic, full curve] | 
57 | Fc1cccc(Cn2cc(C(=S)N3CCCCC3)c3ccccc32)c1 | inconclusive: 29.1 µM [cytotoxic, single point] | 
58 | CC(C)n1ncc2c(C(=O)NCCOc3ccccc3F)cc(C3CC3)nc21 | inconclusive: 16.4 µM [cytotoxic, single point] | 
59 | CC1(c2nnc(Cc3ccccc3)o2)CC(c2cccc([N+](=O)[O-])c2)=NO1 (stereo not drawn) | inactive | 
60 | COC(=O)[C@@]12C[C@@H](CC(=O)NCC3CCCCC3)C(=O)N(Cc3ccc4c(c3)OCO4)C1=CCC(C)(C)C2 | active: 20.6 µM | 
61 | c1ccc(Cn2nnnc2CN2CCN(Cc3ccc4c(c3)OCO4)CC2)cc1 | inconclusive: 11.6 µM [cytotoxic, partial curve] | 
62 | c1ccc(COc2ccc(CNCc3cccs3)cc2)cc1 | inconclusive: 14.6 µM [cytotoxic, partial curve] | 
63 | Cc1sc2nc(C3CC3)nc(N3CCN(S(=O)(=O)c4ccc(F)cc4)CC3)c2c1C | inconclusive: 16.4 µM [cytotoxic, partial curve, poor fit] | 
64 | C[C@H](CO)N1C[C@H](C)[C@@H](CN(C)S(C)(=O)=O)OCc2cnnn2CCCC1=O | inactive | 
65 | CCN(CC)c1c(C)nc2ccc(C(=O)Nc3cc(-c4ccccc4)ccc3OC)cn12 | inconclusive: 18.4 µM [cytotoxic, single point] | 
66 | CC(=O)N1CCc2cc(Br)cc(S(=O)(=O)CCC(=O)N3CCN(c4ccccc4Cl)CC3)c21 | inactive | 
67 | C/C(=C\C(=O)c1ccc(F)cc1)Nc1ccc(N2CCOCC2)cc1 | active: 20.6 µM | 
68 | COc1cc(OC)cc(-c2c(-c3cccs3)c3cc(-c4ccc(OC)c(OC)c4)ccc3n2C)c1 | inactive | 
69 | CC(C)(C)C(=O)Nc1nc(-c2ccccc2)ns1 | active: 14.6 µM | 
70 | O=C(N/N=C/c1ccc2c(c1)OCO2)c1ccc(NC(=O)c2ccc(F)cc2)cc1 | inactive | 
71 | COc1ccc(N2CCN(CC(O)COC(c3ccccc3)c3ccccc3)CC2)cc1 (stereo not drawn) | inconclusive: 14.6 µM [cytotoxic, partial curve] | 
72 | Cc1oc(-c2ccccc2Cl)nc1CSc1nc2c(c(=O)[nH]1)CCC2 | inactive | 
73 | Clc1ccc(CN(CC2CCCO2)C(c2cccs2)c2nnnn2C2CCCC2)cc1 (stereo not drawn) | active: 20.6 µM | 

Reference: PubChem BioAssay AID1347076 (National Center for Advancing Translational Sciences (NCATS), 2019)
